By UniProt entry, the sequences of proteins in these tests, tags left out. Where a name states a change or a piece, a line headed by the entry shows the natural chain unless it says otherwise.
UniProt P51450: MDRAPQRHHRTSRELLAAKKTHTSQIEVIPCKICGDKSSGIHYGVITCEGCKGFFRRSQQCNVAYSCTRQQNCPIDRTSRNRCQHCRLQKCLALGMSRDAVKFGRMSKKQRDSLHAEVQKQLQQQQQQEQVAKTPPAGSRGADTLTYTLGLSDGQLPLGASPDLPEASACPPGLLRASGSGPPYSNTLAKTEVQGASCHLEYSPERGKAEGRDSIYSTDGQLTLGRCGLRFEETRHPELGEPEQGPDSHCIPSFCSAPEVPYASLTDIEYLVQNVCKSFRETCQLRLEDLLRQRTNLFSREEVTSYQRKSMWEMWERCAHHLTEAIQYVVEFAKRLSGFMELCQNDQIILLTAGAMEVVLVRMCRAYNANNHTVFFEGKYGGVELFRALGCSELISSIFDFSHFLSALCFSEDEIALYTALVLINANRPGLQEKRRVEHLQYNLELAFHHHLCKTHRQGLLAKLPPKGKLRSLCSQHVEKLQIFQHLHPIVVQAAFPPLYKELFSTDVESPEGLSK

The whole screen tested about 310,000 compounds, of which about 17,000 (5.5%) were called active. The inconclusive results got no clear call from the source; some entries with a clear call stand among them for comparison. Calls follow the shape of the dose curve; as a rule, active = well fitted inhibition curve with a large enough effect; inconclusive = small, poorly fitted or top-dose-only effect, or effect the other way; inactive = no such curve, though single readings can be large or run the other way. A potency beside an inconclusive call is a rough fit, not a confirmed value.
Each compound was assayed against Nuclear receptor ROR-gamma (Mus musculus) (UniProt P51450) (assay: qHTS for inhibitors of ROR gamma transcriptional activity). Details: Drosophila S2 Gal4-RORgamma UAS-luciferase reporter, 20 h; activity change, negative = inhibition: at 53.6 µM (top of the series).
Method in brief: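 In this cell-based reporter format, copper sulfate (700 uM final) drives Gal4–ROR gamma fusion expression from a metallothionein promoter in Drosophila Schneider cells; compounds preincubated 1 hr, reporter read after 20 hr at ambient temperature.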
In the case of `CC(=O)c1ccc(-n2c(CCC(=O)O)ccc2-c2cccs2)cc1`, the Potency is reported as inconclusive: 35.5 µM [inhibitor, single point].
In the case of `COc1ccc(NC(=O)C2CCCN(c3c4c(nc5ncnn35)CCC4)C2)cc1` (configuration not stated), the Potency is reported as inconclusive: 35.5 µM [inhibitor, single point].
For `O=S(=O)(c1ccc(Cl)s1)N1CCN(C/C=C/c2ccccc2)CC1`, the Potency was inconclusive: 10 µM [activator, partial curve].
In the case of `COc1ccc(C)cc1S(=O)(=O)Nc1ccncc1`, the “activity change, negative = inhibition” value is reported as inactive: -13.2%.
For `CC(=O)O[C@H]1C[C@H]2CC[C@@H]3[C@H]4C[C@@H]([N+]5(C)CCCCC5)[C@@H](OC(C)=O)[C@]4(C)CC[C@@H]3[C@@]2(C)C[C@@H]1[N+]1(C)CCCCC1`, the “activity change, negative = inhibition” value was inactive: 11.4%.
For `O=C(/C=C/c1ccccc1[N+](=O)[O-])NCCc1ccc(F)cc1`, the Potency was inconclusive: 11.2 µM [activator, partial curve].
In the case of `COc1ccccc1NC(=O)C1=C(C)Nc2nc(-c3ccc(N(C)C)cc3)nn2C1c1ccncc1` (configuration not stated), the Potency is reported as inconclusive: 12.6 µM [activator, single point].
`CN(C)S(=O)(=O)N1CCC(Oc2cccc(C(=O)N3CCSCC3)c2)CC1` was tested, and the Potency was inconclusive: 22.4 µM [activator, single point].
For `CN1CC=C2C(C#N)=C(N)C(C#N)(C#N)C(c3cccc(Cl)c3Cl)C2C1` (configuration not stated), the Potency was inconclusive: 11.2 µM [inhibitor, single point].
For `CCOC(=O)c1csc(NC(=O)c2cc(OC)c(OC)c(OC)c2)n1`, the “activity change, negative = inhibition” value was inactive: -8.56%.
In the case of `O=C(OCC(=O)N1CCCCCC1)c1ccc(Cl)c(S(=O)(=O)N2CCCC2)c1`, the Potency is reported as inconclusive: 14.1 µM [activator, single point].
In the case of `CC(C)C(=O)NC(=S)Nc1ccc(S(=O)(=O)Nc2nccs2)cc1`, the “activity change, negative = inhibition” value is reported as inactive: 7.52%.
With `Cc1ccc2[nH]c(=S)cc(C)c2c1` the Potency was active: 15.8 µM.
In the case of `CC(=O)C1=C(c2ccccc2)NC(=S)NC1c1cc(Cl)c(OC(C)C)c(Cl)c1` (configuration not stated), the Potency is reported as active: 7.08 µM.
With `COc1ccc(OC)c(-c2cc(C(=O)NCCN3CCOCC3)no2)c1` the “activity change, negative = inhibition” value was inactive: 6.81%.
In the case of `COc1cccc(C(=O)NCCC2=CCCCC2)c1`, the Potency is reported as inconclusive: 14.1 µM [inhibitor, single point].
For `O=C(Nc1ccc(F)cc1)c1cc(S(=O)(=O)Nc2ccc(F)cc2)cs1`, the Potency was inconclusive: 17.8 µM [activator, single point].
With `COc1cc2oc(=O)cc(-c3ccc(-c4ccc(OC(F)(F)F)cc4)cc3)c2c(OC)c1OC` the “activity change, negative = inhibition” value was inactive: 0.395%.
For `COc1ccc(S(=O)(=O)Nc2ccc(S(=O)(=O)Nc3nccs3)cc2)cc1`, the “activity change, negative = inhibition” value was inactive: -4.15%.
In the case of `COc1cc2[nH]c(=S)nc(NC3CCCCCC3)c2cc1OC`, the Potency is reported as inconclusive: 12.6 µM [inhibitor, single point].
In the case of `COCCn1c(-c2ccc(OC(F)(F)C(F)C(F)(F)F)cc2)nc2c1c(=O)[nH]c(=O)n2CC(C)C` (configuration not stated), the “activity change, negative = inhibition” value is reported as inactive: 7.33%.
`Cc1ccc(CSc2nnc(-c3ccco3)o2)cc1` was tested, and the Potency was inconclusive: 5.01 µM [activator, partial curve].
For `COc1ccccc1CC(=O)O/N=C(\N)c1cccc([N+](=O)[O-])c1`, the Potency was inconclusive: 31.6 µM [activator, single point].
`Cc1ccc(-n2ncc3c(N4CCN(c5ccccc5)CC4)ncnc32)c(C)c1` was tested, and the “activity change, negative = inhibition” value was inactive: 20.5%.
For `CC(=O)Nc1ccc(S(=O)(=O)N2CCN=C2SCc2ccc([N+](=O)[O-])cc2)cc1`, the Potency was inconclusive: 3.16 µM [activator, single point].
In the case of `COC(=O)Cn1c(=NC(=O)c2cc(OC)cc(OC)c2)sc2cc(OC)ccc21`, the Potency is reported as inconclusive: 3.98 µM [activator, partial curve].
With `CCOc1ccccc1NC(=O)C(=O)/C=C(\O)c1cc(OC)ccc1OC` the Potency was inconclusive: 22.4 µM [inhibitor, single point].
`COc1cc(C(=O)Nc2ccc3nc(N4CCN(C)CC4)cc(C)c3c2)cc(OC)c1OC` was tested, and the Potency was inconclusive: 0.891 µM [inhibitor, full curve, poor fit].
With `Cc1c(C(=O)Nc2nnc(C(F)(F)F)s2)oc2ccccc12` the Potency was inconclusive: 0.891 µM [activator, full curve, poor fit].
In the case of `COc1ccc(CN(C)C(=O)c2cc(S(=O)(=O)N3CCCCCC3)ccc2OC)cc1OC`, the Potency is reported as inconclusive: 15.8 µM [activator, single point].
With `CCOC(=O)c1[nH]c2ccc(OCC)cc2c1NC(=O)CN1CCN(c2ccccc2)CC1` the Potency was inconclusive: 12.6 µM [activator, single point].
With `COc1ccc(Cn2nnnc2C(c2cc3cc(C)ccc3[nH]c2=O)N2CCN(C)CC2)cc1` (configuration not stated) the “activity change, negative = inhibition” value was inactive: 2.59%.
For `CS(=O)(=O)N(CC(=O)N1CCN(C(c2ccccc2)c2ccccc2)CC1)C1CCCCC1`, the Potency was active: 12.6 µM.
In the case of `O=C(Cn1cnc2ccccc2c1=O)NCCC(=O)N1CCN(Cc2ccccc2)CC1`, the “activity change, negative = inhibition” value is reported as inactive: -2.13%.
`COc1cc(/C=N/NC(=O)C(=O)/C=C2\NC3(CCCC3)Cc3ccccc32)ccc1O` was tested, and the Potency was inconclusive: 20 µM [inhibitor, single point].
For `O=C1N/C(=N\N=C\c2ccco2)SC1Cc1ccccc1[N+](=O)[O-]` (configuration not stated), the Potency was active: 3.16 µM.
For `C=CCn1c(SCC(=O)NC2CCCC2)nnc1-c1ccccn1`, the Potency was active: 5.62 µM.
In the case of `O=C(N/N=C/c1ccccc1F)NC1CCCCC1`, the “activity change, negative = inhibition” value is reported as inactive: 29.9%.
`Cc1c(-c2ccccc2)sc2nc[nH]c(=S)c12` was tested, and the Potency was active: 0.501 µM.
For `COc1cccc(OCc2cc(C(=O)NCC3CCCCC3)no2)c1`, the “activity change, negative = inhibition” value was inactive: 7.4%.
In the case of `CCc1ccccc1N1CSC2=C(C#N)C(c3cc(OC)c(OC)cc3OC)CC(=O)N2C1` (configuration not stated), the Potency is reported as inconclusive: 8.91 µM [inhibitor, partial curve, poor fit].
In the case of `Cc1ccc2cc(CCNS(=O)(=O)c3ccc(Cl)cc3)c(=O)[nH]c2c1C`, the “activity change, negative = inhibition” value is reported as inactive: 43.6%.
In the case of `CC(C)(C)NNC(=S)Nc1cccc(F)c1`, the Potency is reported as active: 0.631 µM.
With `Cc1cc(=O)[nH]c2c(N=Nc3ccc(O)cc3)c(N)nn12` the Potency was inconclusive: 12.6 µM [inhibitor, single point].
In the case of `O=C(/C=C/c1ccc(Cl)cc1Cl)c1cccnc1`, the Potency is reported as active: 2.82 µM.
In the case of `O=C(O)C1CCCN(C(=O)NCc2ccccc2)C1` (configuration not stated), the “activity change, negative = inhibition” value is reported as inactive: -11.1%.
With `O=C(c1cccc(C(F)(F)F)c1)N1CCC(O)(CS(=O)(=O)Cc2ccccc2Cl)CC1` the Potency was inconclusive: 35.5 µM [activator, single point].
In the case of `Cc1cccc(CSc2ccc(-c3ccco3)nn2)c1`, the “activity change, negative = inhibition” value is reported as inactive: 14%.
With `Cc1ccc2oc(=O)c3cnn(CC(=O)Nc4ccccc4N4CCN(C)CC4)c3c2c1` the Potency was inconclusive: 7.08 µM [inhibitor, partial curve].
For `O=C(COC(=O)c1cn(-c2ccccc2)nc1-c1ccc(F)cc1)Nc1ncc(Cl)cc1Cl`, the Potency was inconclusive: 35.5 µM [inhibitor, single point].
`CCOC(=O)c1sc(NC(=O)c2ccco2)nc1C` was tested, and the Potency was inconclusive: 5.62 µM [activator, full curve, poor fit].
In the case of `S=c1[nH]nc(-c2ccco2)n1C1CCCCC1`, the Potency is reported as active: 10 µM.
`C=CCN1C(=O)/C(=C/c2ccc(OC)cc2)S/C1=N/c1nccs1` was tested, and the Potency was active: 5.01 µM.
In the case of `CCNC(=S)Nc1sc2c(c1C#N)CCC(C)C2` (configuration not stated), the Potency is reported as active: 11.2 µM.
For `O=C(COc1ccc(Br)cc1)NCCN1CCCC1`, the “activity change, negative = inhibition” value was inactive: -8.51%.
In the case of `C#CCNC(=O)/C=C/c1ccc(OC)cc1`, the Potency is reported as inconclusive: 10 µM [inhibitor, partial curve].
For `Cc1ccc(C)c(N2CCN(C(=O)CCCOc3cc(=O)n(C)c4ccccc34)CC2)c1`, the Potency was inconclusive: 12.6 µM [activator, single point].
`Cc1cc(Cl)ccc1OCc1nc(-c2ccc(O)cc2)n[nH]1` was tested, and the Potency was inconclusive: 0.631 µM [inhibitor, full curve, poor fit].
With `O=C(NC1CCCCC1)C(c1ccc2ncccc2c1)N(Cc1ccc(F)cc1)C(=O)c1cccs1` (configuration not stated) the Potency was inconclusive: 35.5 µM [inhibitor, single point].
In the case of `CC1=NN(c2ccc(C(F)(F)F)cn2)C(=O)C1`, the Potency is reported as inconclusive: 28.2 µM [inhibitor, single point].
`COC(=O)c1ccc(NC(=O)Nc2ccc(C)cc2)cc1` was tested, and the Potency was inconclusive: 10 µM [activator, partial curve].
In the case of `Oc1c(Cl)cc(Cl)cc1C(C#Cc1ccccc1)N1CCOCC1` (configuration not stated), the Potency is reported as inconclusive: 12.6 µM [activator, single point].
In the case of `Cc1cc(NC(=O)CSc2nnc(C)o2)no1`, the “activity change, negative = inhibition” value is reported as inactive: -1.53%.
In the case of `O=C(Nc1ccc2c(c1)CCC2)c1ccc(F)c(S(=O)(=O)N2CCOCC2)c1`, the Potency is reported as inconclusive: 14.1 µM [activator, partial curve, poor fit].
In the case of `Cc1ccc(C)c(OC(=O)c2ccncc2)c1`, the Potency is reported as inconclusive: 2.82 µM [inhibitor, single point].
In the case of `c1cc(NC2CC2)nc(-c2ccoc2)n1`, the “activity change, negative = inhibition” value is reported as inactive: 4.4%.
For `COc1cc(/C=N/NC(=S)Nc2cccc(C(=O)O)c2)ccc1O`, the Potency was inconclusive: 22.4 µM [inhibitor, single point].
For `Cc1nn(CC(=O)NCCc2cccs2)c(=O)c2nn(-c3ccccc3)c(C)c12`, the “activity change, negative = inhibition” value was inactive: 0%.
With `COc1ccc(-c2ccc(C)cc2)cc1C1C2C=CCCC2(C)C(=O)N1Cc1ccccc1` (configuration not stated) the Potency was inconclusive: 14.1 µM [activator, single point].
`CCN(CC)c1ccc(/C=C/C(=O)C2C(=O)C=C(C)OC2=O)cc1` (configuration not stated) was tested, and the Potency was active: 12.6 µM.
In the case of `Cc1cc(NS(=O)(=O)c2ccc(NC(=O)/C=C/c3ccccc3Cl)cc2)no1`, the Potency is reported as inconclusive: 6.31 µM [activator, partial curve].
`O=C(NNc1nc(Nc2ccccc2)nc(N2CCOCC2)n1)Nc1ccc(Cl)cc1` was tested, and the Potency was active: 1.78 µM.
% is scaled to controls: 0 for no effect and ±100 for the full control effect; potency is read from the fitted curve at half-maximal effect.
Also: nearly all actives have a fitted effect of over 60% in size.
